According to PubChem BioAssay AID540256 (National Center for Advancing Translational Sciences (NCATS), 2011):
Screen size: about 300,000 compounds; about 3,700 (1.2%) were called active. Inconclusive means that the source gave no clear call. Such entries were picked first, then a sample of the others. Calls follow the shape of the full dose curve; tested in HEK293 cells. A potency beside an inconclusive call is a rough fit, not a confirmed value.

Assay: qHTS for Inhibitors of binding or entry into cells for Lassa Virus; also: nearly all actives have a fitted effect of over 50% in size
Conditions: Lassa virus pseudotype entry inhibition, cell reporter; activity change, negative = inhibition: at 37.9 µM (top of the series) unless noted
% is scaled to controls: 0 for no effect and ±100 for the full control effect; potency is read from the fitted curve at half-maximal effect.

Row | Structure (SMILES) | activity change, negative = inhibition | Potency
1 | Cc1[nH]c2ccccc2c1/C=C(\C#N)C(=O)NCC1CCCO1 (stereo not given) | inactive: -25.1% | –
2 | COc1cc(C2c3c(oc4ccccc4c3=O)C(=O)N2c2nncs2)cc(OC)c1OC (stereo not given) | – | inconclusive: 6.31 µM [activator, partial curve, poor fit]
3 | O=C(N/N=C/c1ccccc1OC(F)F)NC1CCCCC1 | inactive: -26% | –
4 | Cc1cccc(-c2cc(NC(=O)C(C)(C)C)n(-c3ccccc3)n2)c1 | inactive: 23.4% [at 46.1 µM] | –
5 | CCCc1ccc(OCc2ccc(C(=O)N/N=C/c3cccc([N+](=O)[O-])c3)o2)c(OC)c1 | – | inconclusive: 14.1 µM [inhibitor, single point]
6 | CCc1ccc(NC(=O)c2cc3nc(-c4ccc(C)cc4)cc(C(F)(F)F)n3n2)cc1 | inactive: 0.84% [at 46.1 µM] | –
7 | O=C(O)Cc1sc(Nc2ccccc2Cl)nc1-c1ccccc1 | – | inconclusive: 25.1 µM [activator, single point]
8 | CCCCN(C(=O)CSc1cc(C)c2ccc(OC)cc2n1)c1c(N)n(Cc2ccccc2)c(=O)[nH]c1=O | inactive: -10.6% | –
9 | O=C(c1cc2c(s1)CCC2)N1C(=O)c2ccccc2S1(=O)=O | inactive: 4.2% | –
10 | COc1ccccc1C(C)NC(=O)CCC(=O)N1CCN(S(=O)(=O)c2ccc(Cl)cc2)CC1 (stereo not given) | – | inconclusive: 35.5 µM [inhibitor, single point]
11 | COc1ccc(C2=NCC(=O)N(CC(=O)NCc3ccco3)c3sc4c(c32)CCCC4)cc1OC | – | inconclusive: 9.2 µM [inhibitor, partial curve]
12 | COC(=O)C1=CN(c2ccc(F)cc2)C=C(C(=O)OC)C1c1ccc(O)cc1 | – | inconclusive: 1.41 µM [inhibitor, full curve, poor fit]
13 | O=[N+]([O-])/C(C(=C(Cl)Cl)N1CCOCC1)=C1\NCCO1 | inactive: 19.1% | –
14 | O=C(CN1CCN(c2ccccc2O)CC1)NC(=O)NC1CCCC1 | – | inconclusive: 35.5 µM [inhibitor, single point]
15 | CCCCCC(=O)N1C[C@@H](O)[C@H](n2cc(C3CC3)nn2)C[C@H]1c1ccc(C)cc1 | – | inconclusive: 0.177 µM [inhibitor, full curve]
16 | CC(=O)N1CC(C(=O)Nc2ccc3c(c2)OCO3)Oc2ccccc21 (stereo not given) | – | inconclusive: 0.0891 µM [activator, full curve, poor fit]
17 | COC(=O)C1C=CC(OC2OC(COC(C)=O)C(OC(C)=O)C(OC(C)=O)C2OC(C)=O)n2c(=O)n(-c3ccccc3)c(=O)n21 (stereo not given) | – | inconclusive: 15.8 µM [inhibitor, single point]
18 | COc1cccc(OC(C)c2ccnc3nc(/N=C/N(C)C)nn23)c1 (stereo not given) | – | inconclusive: 0.651 µM [inhibitor, full curve, poor fit]
19 | Cc1cc(C)c(NC(=O)CCCN2C(=O)COc3ccc(C)cc32)c(C)c1 | – | inconclusive: 0.562 µM [activator, full curve, poor fit]
20 | O=C(c1nc2ccc(Cl)cn2c1CN1CCCC(CO)C1)N1CCc2ccccc2C1 (stereo not given) | – | inconclusive: 1.26 µM [inhibitor, partial curve, poor fit]
21 | C[C@H](NC(=O)COc1ccc(Cl)cc1)C(=O)N1CCC2(CC1)NCCc1[nH]cnc12 | – | inconclusive: 11.2 µM [activator, partial curve, poor fit]
22 | COCCCn1c(N)c(C(=O)NCCC(C)C)c2nc3ccccc3nc21 | inactive: -9.8% | –

Row | Structure (SMILES) | activity change, negative = inhibition | Potency
23 | Cc1c(-c2ccccc2)c(-c2ccc(OCCN(C)C)cc2)n2ccccc12 | – | inconclusive: 35.5 µM [inhibitor, single point]
24 | Cc1cccc(C)c1NC(=O)CCCCCNS(=O)(=O)c1ccccc1 | – | inconclusive: 35.5 µM [inhibitor, partial curve, poor fit]
25 | CC(NC(c1ccccc1)c1ccccc1)C(=O)N1CCCc2ccccc21 (stereo not given) | – | inconclusive: 22.4 µM [inhibitor, partial curve, poor fit]
26 | Cc1nn2cc(-c3cccc(Cl)c3)cnc2c1Br | inactive: 9.23% | –
27 | COc1ccc(NC(=O)CN(C)C(=O)c2ccccc2OCC(=O)Nc2cccc(C(F)(F)F)c2)cc1 | inactive: -4.93% | –
28 | CCc1nnc(NC(=O)C2CCCN(S(=O)(=O)c3ccc(OC)cc3)C2)s1 (stereo not given) | inactive: -19.1% | –
29 | CN(C)/C=N/c1c(C#N)cnn1-c1nc2ccccc2s1 | inactive: 9.35% | –
30 | Cc1ccc(-c2ccc(=O)n(CC(=O)N3CCN(c4cccc(C)c4)C(C)C3)n2)cc1 (stereo not given) | – | inconclusive: 10.3 µM [inhibitor, partial curve, poor fit]
31 | COc1ccccc1N1CCN(S(=O)(=O)c2c(C)sc3ncn(CC(=O)Nc4ccc(C(F)(F)F)cc4)c(=O)c23)CC1 | – | inconclusive: 8.91 µM [activator, partial curve, poor fit]
32 | CCc1ccccc1NC(=O)N[C@@H](C)C(=O)O | inactive: 2.91% | –
33 | O=C(Nc1ccc2c(c1)nc1n2CCCCC1)c1cc(S(=O)(=O)N2CCOCC2)ccc1Cl | – | inconclusive: 11.2 µM [inhibitor, partial curve]
34 | COc1ccc(CC(=O)NCc2nc3cccnc3n2Cc2ccc(C)cc2)cc1 | inactive: 4.03% [at 46.1 µM] | –
35 | O=[N+]([O-])c1cc(S(=O)(=O)CCCN2CCOCC2)ccc1F | – | inconclusive: 29.1 µM [inhibitor, single point]
36 | CCOC(=O)c1ccc(NC(=O)CCc2nc(-c3ccccc3Cl)no2)cc1 | – | inconclusive: 25.9 µM [inhibitor, single point]
37 | COc1ccc(Cl)cc1NC(=O)CSc1nc(=O)n(CCN(C)C)c2c1CCCC2 | – | inconclusive: 35.5 µM [inhibitor, single point]
38 | COc1ccccc1NC(=O)C(C)OC(=O)C1CCC(C(C)(C)C)CC1 (stereo not given) | – | inconclusive: 6.31 µM [inhibitor, partial curve, poor fit]
39 | COc1cc([N+](=O)[O-])cc(/C=N/NC(=O)CSc2nnc(-c3ccccc3)n2C)c1O | inactive: -4.78% | –
40 | COC(=O)c1ccc(NC(=O)C(=O)NCCc2sc(-c3cccc(F)c3)nc2C)cc1 | inactive: 3.32% [at 46.1 µM] | –
41 | Cc1ccc(OCc2cc(C(=O)N3CC4C[C@@H]5CC3C[C@H](C4)C5)no2)cc1C | inactive: -25.4% | –
42 | O=S(=O)(Nc1cccnc1)c1cccc(C(F)(F)F)c1 | – | inconclusive: 0.82 µM [activator, full curve, poor fit]
43 | COc1ccc(NC(=O)CSc2nc3cc(OC)c(OC)cc3c3nc(-c4ccccc4)nn23)cc1Cl | inactive: 6.85% [at 46.1 µM] | –
44 | COc1ccccc1CNCC(=O)Nc1cc(S(=O)(=O)N2CCOCC2)ccc1Cl | – | inconclusive: 10 µM [inhibitor, partial curve, poor fit]

Row | Structure (SMILES) | activity change, negative = inhibition | Potency
45 | Cc1cc(C)c(S(=O)(=O)N(C)Cc2cnn(C)c2)c(C)c1 | inactive: 11.3% | –
46 | COc1cccc(N/C(SCc2ccccc2Cl)=C(/C#N)C(=O)NCc2cccs2)c1 | – | inconclusive: 23.1 µM [inhibitor, partial curve]
47 | O=C(O)/C=C/C(=O)N1N=C(c2ccco2)CC1c1ccco1 (stereo not given) | – | inconclusive: 0.1 µM [activator, full curve, poor fit]
48 | CN(C)c1ccc(NC(=O)CN2C(=O)CN=C(c3ccccc3)c3ccccc32)cc1 | – | inconclusive: 14.1 µM [inhibitor, partial curve, poor fit]
49 | Cc1cccc(N/C=C(\[N+](=O)[O-])S(=O)(=O)c2ccccc2)c1C | inactive: -0.469% [at 46.1 µM] | –
50 | CC(=O)Nc1cccc(Oc2ncnc3scc(-c4ccc(C)cc4)c23)c1 | – | inconclusive: 25.9 µM [inhibitor, single point]
51 | O=C(c1ccc(-c2ccccc2)cc1)C1CCCN(C(=O)Cn2cncn2)C1 (stereo not given) | – | inconclusive: 31.6 µM [inhibitor, single point]
52 | NS(=O)(=O)c1ccc(CNC(=S)NC2CC2)cc1 | inactive: -7.39% | –
53 | Cc1ccccc1N/C(SCc1ccc(Cl)cc1)=C(/C#N)C(=O)NCc1ccco1 | – | inconclusive: 1.46 µM [inhibitor, partial curve, poor fit]
54 | CC12CCC(c3nnc(SCc4ccc(Cl)cc4)nc31)C2(C)C (stereo not given) | – | inconclusive: 15.8 µM [inhibitor, single point]
55 | COc1ccc(NC(=S)N(CCC(C)C)C2CCN(C(C)C)CC2)cc1Cl | – | inconclusive: 3.16 µM [inhibitor, partial curve, poor fit]
56 | Cc1cccc(C)c1NC(=O)CSc1nc(C)c(CC(=O)c2ccc(Br)cc2)c(C)c1C#N | – | active: 17.8 µM
57 | COc1cc(NC(=O)c2c(-c3ccccc3Cl)noc2C)c2ncccc2c1 | – | inconclusive: 3.16 µM [inhibitor, partial curve, poor fit]
58 | CCN1C(=O)/C(=C/c2ccc(C)s2)SC1=Nc1ccc(OC)cc1 | – | inconclusive: 8.91 µM [inhibitor, partial curve]
59 | CCOC(=O)c1c(NC(=O)COC(=O)c2ccccc2NC)sc(C(=O)N(C)C)c1C | – | inconclusive: 7.94 µM [inhibitor, partial curve, poor fit]
60 | O=C(CSc1nnc(CCCO)n1-c1ccccc1)Nc1nccs1 | – | inconclusive: 5.17 µM [activator, partial curve, poor fit]
61 | Cc1cc(C)cc(NC(=O)CSc2oc(-c3cccs3)nc2S(=O)(=O)c2ccccc2)c1 | – | inconclusive: 3.16 µM [inhibitor, partial curve, poor fit]
62 | Cc1ccc(SCC(=O)N2CCOCC2)cc1 | inactive: 33.1% | –
63 | Nc1nc(NCCCN2CCOCC2)nc(NCc2ccccc2)c1[N+](=O)[O-] | – | inconclusive: 8.91 µM [inhibitor, partial curve, poor fit]
64 | Cc1nc(N2CCOCC2)nc(N2CCCCC2)c1[N+](=O)[O-] | inactive: -28.6% | –
65 | Cc1ccc(C(=O)OCC(=O)N2C(C)CCCC2C)cc1S(=O)(=O)N1CCCCC1 (stereo not given) | – | inconclusive: 20 µM [inhibitor, partial curve, poor fit]

Six entries from above, as comma-separated lines:
Row,Structure (SMILES),"activity change, negative = inhibition",Potency
24,Cc1cccc(C)c1NC(=O)CCCCCNS(=O)(=O)c1ccccc1,–,"inconclusive: 35.5 µM [inhibitor, partial curve, poor fit]"
25,CC(NC(c1ccccc1)c1ccccc1)C(=O)N1CCCc2ccccc21 (stereo not given),–,"inconclusive: 22.4 µM [inhibitor, partial curve, poor fit]"
26,Cc1nn2cc(-c3cccc(Cl)c3)cnc2c1Br,inactive: 9.23%,–
27,COc1ccc(NC(=O)CN(C)C(=O)c2ccccc2OCC(=O)Nc2cccc(C(F)(F)F)c2)cc1,inactive: -4.93%,–
28,CCc1nnc(NC(=O)C2CCCN(S(=O)(=O)c3ccc(OC)cc3)C2)s1 (stereo not given),inactive: -19.1%,–
29,CN(C)/C=N/c1c(C#N)cnn1-c1nc2ccccc2s1,inactive: 9.35%,–
